Earlier results in patent US8507562B2, “Synthesis of (1)-beta-elemene, (-)-beta-elemenal, (-)-beta-elemenol, (-)-beta-elemene fluoride and their analogues, intermediates, and composition and uses thereof” (HYWE Pharmaceuticals, Inc., priority 2004, dated 2013).
At least one structure is not confirmed: it was looked up by name or label, or the drawing left a doubt.

System: recurrent anaplastic astrocytoma / brain tumor
Conditions: cited from earlier work
[1] = recurrent anaplastic astrocytoma

Cn1nnc2c(C(N)=O)ncn2c1=O [TEMODAR, temozolomide]
CR+PR rate (brain tumor patients): 20% | complete responses [1]: 9% | overall tumor response rate [1]: 22% | partial responses [1]: 13%
